For orientation: AC50 means the midpoint of the concentration-response curve, whichever way the signal moves.

Some of the results follow. Shown are side measurements of this screen, not its main read-out; they come without a call. Most of these compounds were active or inconclusive in the main read-out, so they are no random draw. Potencies come from curve fits of mixed quality, noted in brackets.

The nature of this assay: Cell signaling CRE-BLA (Fsk stim). The following applies: CHO CRE-bla reporter (cAMP response element driving beta-lactamase), forskolin EC10, beta-lactamase ratio; measured here: 460 nm blue channel. In outline: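 CRE-bla CHO cells stimulated with EC10 NKH 477 (water-soluble forskolin) and compound titrations, 3 h at 37C; beta-lactamase read with CCF4 after 2 h at room temperature. Activity from 460/530 nm emission ratio, AC50 values for positive or negative modulation.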
On to `CC(C)(C)[C@@]1(O)CCN2C[C@@H]3c4ccccc4CCc4cccc(c43)[C@@H]2C1`, for which the AC50 was 12.6 µM [falling, single point].

`CCNc1ncc2nc(-c3ccc(F)cc3)c(=O)n(CCc3ccccc3)c2n1`: the AC50 was 0.794 µM [rising, full curve].

Take `CCCc1[nH]nc2c1C(c1ccc(OC)c(Cn3nc(C)c(Br)c3C)c1)C(C#N)=C(N)O2` (stereo not drawn): the AC50 was 25.1 µM [rising, single point].

With `O=C(Nc1ccc(-c2noc(CCc3ccccc3)n2)cc1)c1cccnc1`, the AC50 is 20 µM [falling, single point].

Take `COc1ccc(Cl)cc1NC(=O)CSc1ncnc2c1oc1ccccc12`: the AC50 is 0.316 µM [rising, full curve].

`COc1cc(C(=O)NCc2ccco2)cc(OC)c1OC`: the AC50 was 12.6 µM [rising, single point].

As to `COc1ccc(-c2ccc(SCC(=O)N3CCCC3)nn2)cc1OC`, the AC50 was 12.6 µM [rising, partial curve].

In the case of `CCN(CC(=O)NC1CCS(=O)(=O)C1)C(=O)COc1ccccc1-c1ccccc1` (stereo not drawn), the AC50 was 0.01 µM [falling, full curve, poor fit].

On to `COc1ccc(C(=O)CSc2nc3nc(C)cc(C)n3n2)cc1OC`, for which the AC50 was 5.01 µM [rising, partial curve].

Consider `N#Cc1ccccc1-c1ccc2ncnc(NCc3cccnc3)c2c1`, for which the AC50 is 5.01 µM [rising, partial curve].

On to `O=c1[nH]c2ccccc2c2nc3ccccn3c12`, for which the AC50 was 10 µM [rising, partial curve].

Regarding `CCc1nc(SCCO)c2oc3ccccc3c2n1`, the AC50 was 5.01 µM [rising, partial curve].

For `COc1ccc(-c2cc(C(=O)NCc3cccnc3)no2)cc1`, the concentration at half-maximal activity (AC50) is 12.6 µM [falling, partial curve].

With `CN1CCN(C(=O)CSc2nc(-c3cccs3)cc(-c3cccs3)c2C#N)CC1`, the AC50 is 25.1 µM [rising, single point].

Turning to `CC(C)Oc1ccc(C(=O)N(CN2CCCC2=O)c2ccc(F)cc2)cc1`, the AC50 is 0.1 µM [falling, full curve].

On to `O=C(c1cc(Cl)cc(Cl)c1)N1CCOCC1`, for which the AC50 was 0.00398 µM [rising, full curve, poor fit].

On to `O=C(c1cc(-c2cccs2)on1)N1CCOCC1`, for which the AC50 was 15.8 µM [falling, partial curve].

As for `CCN(CC)C(=O)CSC1=Nc2ccccc2C2=NC(Cc3c[nH]c4ccccc34)C(=O)N12` (stereo not drawn), the AC50 is 3.16 µM [rising, partial curve].

Take `COc1cc(OC)cc(C(=O)NCC(=O)OC2CCOC2=O)c1` (stereo not drawn): the AC50 is 5.01 µM [falling, single point].

In the case of `COc1ccc2nc(S(=O)Cc3ncc(C)c(OC)c3C)[nH]c2c1` (stereo not drawn), the AC50 is 7.94 µM [rising, partial curve].

For the molecule `C=CCn1cnc2scc(-c3ccccc3)c2c1=O`, the concentration at half-maximal activity (AC50) is 12.6 µM [rising, partial curve].

For the molecule `C=C1CC[C@@H]2[C@](C)(CC[C@@H](O)[C@]2(C)CO)[C@@H]1C/C=C1/C(=O)OC[C@H]1O`, the AC50 was 31.6 µM [falling, single point].

`CCOC(=O)C1CCCc2c1[nH]c1c(C(=O)O)cccc21` (stereo not drawn): the AC50 is 0.0794 µM [rising, full curve, poor fit].

Turning to `COc1ccc(-c2cnc(N)n2CC2CCCO2)cc1` (stereo not drawn), the AC50 is 15.8 µM [rising, single point].

`O=S(=O)(c1cccc(-c2nnco2)c1)N1CCCC1`: the AC50 was 5.01 µM [falling, single point].

As to `Cc1ccccc1C(=O)c1cccn1CC(=O)NCc1ccco1`, the AC50 was 0.126 µM [falling, full curve].

`Cc1c(C(=O)N2CCN(c3ccccn3)CC2)oc2ccccc12`: the half-maximal activity concentration (AC50) was 3.16 µM [rising, single point].

Consider `CCOC(=O)C1=C(C)N(C)C(=O)NC1c1ccc(C)s1` (stereo not drawn), for which the AC50 is 0.00316 µM [falling, full curve, poor fit].

With `O=C(CSc1cccc2cccnc12)NCc1ccco1`, the AC50 was 10 µM [falling, partial curve].

Regarding `CN(C)c1ncc2nc(CCc3ccccc3)c(=O)n(Cc3ccc(F)cc3)c2n1`, the half-maximal activity concentration (AC50) was 0.1 µM [rising, full curve, poor fit].

Turning to `CCCN(Cc1ccccc1)C(=O)Nc1ccc2c(c1)nnn2C`, the AC50 was 6.31 µM [rising, partial curve, poor fit].

In the case of `Cc1ccc2c(c1)c1ncnc(N3CCN(c4ccccc4)CC3)c1n2C`, the AC50 is 12.6 µM [rising, partial curve].

In the case of `CCn1c(=O)cc(OCC(=O)NCc2ccco2)c2ccccc21`, the AC50 was 12.6 µM [rising, partial curve].

In the case of `COC(=O)Cn1ncn2c(cc3oc(C)cc32)c1=O`, the AC50 was 20 µM [falling, partial curve, poor fit].

As to `COc1ccc(CNc2ncnc3ccc(-c4ccc5c(c4)OCO5)cc23)c(OC)c1`, the AC50 is 10 µM [rising, partial curve].

As for `CN(C)Cc1ccccc1-c1ccc2ncnc(N(C)Cc3ccco3)c2c1`, the half-maximal activity concentration (AC50) is 3.98 µM [rising, full curve].

With `O=C(NCc1ccccc1)c1cc(S(=O)(=O)N2CCOCC2)ccc1F`, the AC50 was 0.126 µM [falling, partial curve, poor fit].

Regarding `C=CCn1c2ccccc2c2nnc(SCc3ccc4nonc4c3)nc21`, the half-maximal activity concentration (AC50) was 1.58 µM [rising, full curve].

On to `CCOc1ccc(-n2c(COc3ccccc3)nnc2SCC(N)=O)cc1`, for which the AC50 is 15.8 µM [rising, partial curve, poor fit].

Turning to `Cn1c(CCCNC(=O)c2ccccc2)nc2ccccc21`, the half-maximal activity concentration (AC50) is 2.51 µM [falling, single point].

In the case of `CCOC(=O)CC(=O)CSc1nnc2c(n1)[nH]c1ccccc12`, the AC50 is 12.6 µM [rising, single point].

Consider `COC(=O)c1cc(Br)c(=O)n(Cc2ccc(OC)c(OC)c2)c1`, for which the concentration at half-maximal activity (AC50) was 15.8 µM [rising, single point].

Take `c1ccc(Cn2c(-c3ccco3)nc3nc4ccccc4nc32)cc1`: the AC50 was 12.6 µM [rising, partial curve].

As to `CS(=O)(=O)N1CCCC(C(=O)NCCCN2CCN(Cc3ccccc3)CC2)C1` (stereo not drawn), the AC50 is 2 µM [rising, partial curve].

Take `COC(=O)c1ccc(NC(=O)Nc2ccc(F)cc2)cc1`: the AC50 was 5.01 µM [falling, single point].

With `CCOc1cc(S(=O)(=O)N2CCOCC2)ccc1F`, the AC50 was 12.6 µM [falling, partial curve].

Turning to `COc1cccc(Nc2nnc(SCn3nnc4ccccc4c3=O)s2)c1`, the AC50 was 20 µM [rising, single point].

As for `CN(C)c1ncc2ncc(=O)n(CCc3ccccc3)c2n1`, the AC50 is 25.1 µM [rising, single point].

With `COc1ccc(CNc2nc(-c3ccccc3OC)nc3ccccc23)c(OC)c1`, the AC50 is 10 µM [rising, partial curve].

With `COc1cccc(Nc2ncc3nc(CCc4ccccc4)c(=O)n(CCC#N)c3n2)c1`, the AC50 was 5.01 µM [rising, partial curve].

Regarding `COc1ccc(C(C)=O)cc1CN1C(=O)C(C)N(c2ccc(C)cc2)C1=O` (stereo not drawn), the AC50 is 5.01 µM [falling, single point].

Consider `Cn1c(=O)n(Cc2ccc(F)cc2)c(=O)c2c1nc1n2CCCN1C1CCCCC1`, for which the AC50 is 10 µM [rising, partial curve].

Consider `COc1ccccc1-c1cc(NCc2ccccc2)ncn1`, for which the AC50 was 5.01 µM [rising, single point].

As for `O=C(O)c1cc([N+](=O)[O-])ccc1NCCCc1ccccc1`, the AC50 is 31.6 µM [falling, single point].

With `COC(=O)c1ccc(CSc2nc3c(cnn3-c3ccc(F)cc3)c(=O)[nH]2)o1`, the AC50 was 1.26 µM [rising, full curve].

Regarding `O=c1c2cccnc2[nH]c(=S)n1CCCN1CCN(c2ccccc2F)CC1`, the AC50 was 0.316 µM [rising, single point].

As to `COc1ccccc1NC(=O)CN1C(=O)C2(OCCCO2)c2ccccc21`, the half-maximal activity concentration (AC50) was 15.8 µM [falling, partial curve, poor fit].

For `COc1ccc(N(C)S(=O)(=O)c2cccc3cccnc23)c(OC)c1`, the AC50 is 3.98 µM [falling, partial curve, poor fit].

On to `COc1cccc(NC(=O)CN2C(=O)C3(OCCCO3)c3ccccc32)c1`, for which the concentration at half-maximal activity (AC50) is 3.16 µM [falling, full curve].

Regarding `CCOC(=O)C1=C(C)NC2=C(C(=O)CC(C)(C)C2)C1c1cccc(C)n1` (stereo not drawn), the concentration at half-maximal activity (AC50) was 10 µM [rising, single point].

Turning to `COc1cccc(OC)c1C(=O)N1CCN(Cc2ccccc2C)CC1`, the AC50 was 0.794 µM [rising, partial curve].

`COc1cc2c(cc1OC)[C@@H]1C(=O)c3ccc4c(c3O[C@@H]1CO2)C=CC(C)(C)O4`: the AC50 is 20 µM [falling, partial curve, poor fit].

Take `Cn1c(C(=O)NCCCN2CCCCCC2)cc2c(=O)n(C)c3ccccc3c21`: the AC50 was 10 µM [rising, partial curve].

For `COC(=O)c1cc(=O)n(Cc2cccs2)c(=NCc2cccs2)s1`, the half-maximal activity concentration (AC50) is 0.00398 µM [falling, full curve, poor fit].

As for `CSc1nsc(SCC(=O)N2CCCc3ccccc32)n1`, the AC50 was 25.1 µM [falling, single point].

Consider `O=c1c(CCc2ccccc2)nc2cncnc2n1C1CC1`, for which the AC50 is 0.251 µM [rising, full curve].

On to `CCOc1ccc(-c2nc(CSc3nncs3)cs2)cc1OC`, for which the AC50 was 3.98 µM [rising, partial curve].

`CN=C1c2ccccc2CN1c1cccc(C(=O)OC)c1`: the AC50 is 12.6 µM [rising, single point].

(Values after PubChem BioAssay AID662 (National Center for Advancing Translational Sciences (NCATS), 2007).)
